The experiment relates to CD2F1 mice, nontumored, toxicity/survival. In words: NCI In Vivo Anticancer Drug Screen. Data for tumor model Nontumored Animals (Toxicity Test) in CD2F1 (CDF1) mice.

Experimental findings from PubChem BioAssay AID188 (DTP/NCI, 2004) are described below.

Values are animals surviving of animals treated; these mice carried no tumour. Counts of survivors are from the toxicity check (mostly the fifth day) where no day follows; animals may have died later. Schedule codes are those of the source, read here as Q, the interval in days (D) or hours (H), X, the number of doses.

On to `Nc1ncnc2c1ncn2C1OC(COP(=O)(O)O)C(O)C1O` (centres undefined), for which the survivor count (dose: 20.0 mg/kg/injection, schedule: Q01DX009 (ip), vehicle: water) is given as 10 of 10; the survivor count (dose: 40.0 mg/kg/injection, schedule: Q01DX009 (ip), vehicle: water) is 10 of 10; the survivor count (dose: 80.0 mg/kg/injection, schedule: Q01DX009 (ip), vehicle: water) is given as 10 of 10; the survivor count (dose: 80.0 mg/kg/injection, schedule: Q04DX002 (ip), vehicle: water) was 10 of 10; the survivor count (dose: 150.0 mg/kg/injection, schedule: Q03HX024 (ip), vehicle: water) is 5 of 5; the survivor count (dose: 160.0 mg/kg/injection, schedule: Q01DX009 (ip), vehicle: water) is on record as 10 of 10. Also, the survivor count by setting is: (dose: 160.0 mg/kg/injection, schedule: Q04DX002 (ip), vehicle: water) 10 of 10; (dose: 250.0 mg/kg/injection, schedule: Q03HX024 (ip), vehicle: water) 5 of 5; (dose: 320.0 mg/kg/injection, schedule: Q01DX009 (ip), vehicle: water) 10 of 10; (dose: 320.0 mg/kg/injection, schedule: Q04DX002 (ip), vehicle: water) 10 of 10; (dose: 640.0 mg/kg/injection, schedule: Q01DX009 (ip), vehicle: water) 10 of 10; (dose: 640.0 mg/kg/injection, schedule: Q04DX002 (ip), vehicle: water) 10 of 10.

For `COC(OC(CO)C(O)S(=O)(=O)O)C(O)S(=O)(=O)O` (centres undefined), the survivor count (dose: 50.0 mg/kg/injection, schedule: Q01DX001 (ip), vehicle: saline) was 8 of 8; the survivor count (dose: 50.0 mg/kg/injection, schedule: Q01DX009 (ip), vehicle: saline) is 8 of 8; the survivor count (dose: 50.0 mg/kg/injection, schedule: Q01DX009 (sc), vehicle: saline) is listed as 8 of 8; the survivor count (dose: 50.0 mg/kg/injection, schedule: Q03HX008 (ip), vehicle: saline) is recorded as 8 of 8; the survivor count (dose: 50.0 mg/kg/injection, schedule: Q03HX016 (ip), vehicle: saline) is recorded as 8 of 8; the survivor count (dose: 50.0 mg/kg/injection, schedule: Q03HX024 (ip), vehicle: saline) was 8 of 8. Besides, the survivor count is on record as 8 of 8 (dose: 100.0 mg/kg/injection, schedule: Q01DX001 (ip), vehicle: saline); 7 of 8 (dose: 100.0 mg/kg/injection, schedule: Q01DX009 (ip), vehicle: saline); 8 of 8 (dose: 100.0 mg/kg/injection, schedule: Q01DX009 (oral), vehicle: saline); 8 of 8 (dose: 100.0 mg/kg/injection, schedule: Q01DX009 (sc), vehicle: saline); 5 of 8 (dose: 100.0 mg/kg/injection, schedule: Q03HX008 (ip), vehicle: saline); 7 of 8 (dose: 100.0 mg/kg/injection, schedule: Q03HX016 (ip), vehicle: saline). Besides, the survivor count is, setting by setting: (dose: 100.0 mg/kg/injection, schedule: Q03HX024 (ip), vehicle: saline) 8 of 8; (dose: 100.0 mg/kg/injection, schedule: Q04DX003 (ip), vehicle: saline) 8 of 8; (dose: 100.0 mg/kg/injection, schedule: Q08DX002 (ip), vehicle: saline) 8 of 8; (dose: 200.0 mg/kg/injection, schedule: Q01DX001 (ip), vehicle: saline) 8 of 8; (dose: 200.0 mg/kg/injection, schedule: Q01DX009 (ip), vehicle: saline) 8 of 8; (dose: 200.0 mg/kg/injection, schedule: Q01DX009 (oral), vehicle: saline) 8 of 8. Further, the survivor count (dose: 200.0 mg/kg/injection, schedule: Q01DX009 (sc), vehicle: saline) was 8 of 8; the survivor count (dose: 200.0 mg/kg/injection, schedule: Q03HX008 (ip), vehicle: saline) is listed as 0 of 8; the survivor count (dose: 200.0 mg/kg/injection, schedule: Q03HX016 (ip), vehicle: saline) was 0 of 8; the survivor count (dose: 200.0 mg/kg/injection, schedule: Q03HX024 (ip), vehicle: saline) is on record as 0 of 8; the survivor count (dose: 200.0 mg/kg/injection, schedule: Q04DX003 (ip), vehicle: saline) was 8 of 8; the survivor count (dose: 200.0 mg/kg/injection, schedule: Q08DX002 (ip), vehicle: saline) is 8 of 8. In addition, the survivor count runs as follows: (dose: 400.0 mg/kg/injection, schedule: Q01DX001 (ip), vehicle: saline) 8 of 8; (dose: 400.0 mg/kg/injection, schedule: Q01DX009 (ip), vehicle: saline) 6 of 6; (dose: 400.0 mg/kg/injection, schedule: Q01DX009 (oral), vehicle: saline) 8 of 8; (dose: 400.0 mg/kg/injection, schedule: Q01DX009 (sc), vehicle: saline) 6 of 8; (dose: 400.0 mg/kg/injection, schedule: Q03HX008 (ip), vehicle: saline) 0 of 8; (dose: 400.0 mg/kg/injection, schedule: Q03HX016 (ip), vehicle: saline) 0 of 8. Besides, the survivor count (dose: 400.0 mg/kg/injection, schedule: Q03HX024 (ip), vehicle: saline) was 0 of 8; the survivor count (dose: 400.0 mg/kg/injection, schedule: Q04DX003 (ip), vehicle: saline) is reported as 8 of 8; the survivor count (dose: 400.0 mg/kg/injection, schedule: Q08DX002 (ip), vehicle: saline) is listed as 8 of 8; the survivor count (dose: 800.0 mg/kg/injection, schedule: Q01DX001 (ip), vehicle: saline) was 8 of 8; the survivor count (dose: 800.0 mg/kg/injection, schedule: Q01DX009 (oral), vehicle: saline) is on record as 8 of 8; the survivor count (dose: 800.0 mg/kg/injection, schedule: Q04DX003 (ip), vehicle: saline) was 8 of 8. Besides, the survivor count (dose: 800.0 mg/kg/injection, schedule: Q08DX002 (ip), vehicle: saline) is 8 of 8.

As for `C1CN1c1nc(N2CC2)nc(N2CC2)n1`, the survivor count (dose: 0.06 mg/kg/injection, schedule: Q03HX008 (ip), vehicle: saline) is 8 of 8; the survivor count (dose: 0.06 mg/kg/injection, schedule: Q03HX016 (ip), vehicle: saline) was 8 of 8; the survivor count (dose: 0.06 mg/kg/injection, schedule: Q03HX024 (ip), vehicle: saline) is given as 8 of 8; the survivor count (dose: 0.13 mg/kg/injection, schedule: Q03HX008 (ip), vehicle: saline) was 8 of 8; the survivor count (dose: 0.13 mg/kg/injection, schedule: Q03HX016 (ip), vehicle: saline) is listed as 8 of 8; the survivor count (dose: 0.13 mg/kg/injection, schedule: Q03HX024 (ip), vehicle: saline) is 8 of 8. Also, the survivor count is 8 of 8 (dose: 0.25 mg/kg/injection, schedule: Q01DX005 (ip), vehicle: saline); 8 of 8 (dose: 0.25 mg/kg/injection, schedule: Q03HX008 (ip), vehicle: saline); 8 of 8 (dose: 0.25 mg/kg/injection, schedule: Q03HX016 (ip), vehicle: saline); 8 of 8 (dose: 0.25 mg/kg/injection, schedule: Q03HX024 (ip), vehicle: saline); 8 of 8 (dose: 0.5 mg/kg/injection, schedule: Q01DX001 (ip), vehicle: saline); 8 of 8 (dose: 0.5 mg/kg/injection, schedule: Q01DX005 (ip), vehicle: saline). Also, the survivor count is, setting by setting: (dose: 0.5 mg/kg/injection, schedule: Q03HX008 (ip), vehicle: saline) 8 of 8; (dose: 0.5 mg/kg/injection, schedule: Q03HX016 (ip), vehicle: saline) 8 of 8; (dose: 0.5 mg/kg/injection, schedule: Q03HX024 (ip), vehicle: saline) 8 of 8; (dose: 0.5 mg/kg/injection, schedule: Q04DX003 (ip), vehicle: saline) 8 of 8; (dose: 0.5 mg/kg/injection, schedule: Q08DX002 (ip), vehicle: saline) 8 of 8; (dose: 0.5 mg/kg/injection, schedule: Q11DX002 (ip), vehicle: saline) 8 of 8. Further, the survivor count is, setting by setting: (dose: 1.0 mg/kg/injection, schedule: Q01DX001 (ip), vehicle: saline) 8 of 8; (dose: 1.0 mg/kg/injection, schedule: Q01DX005 (ip), vehicle: saline) 8 of 8; (dose: 1.0 mg/kg/injection, schedule: Q04DX003 (ip), vehicle: saline) 8 of 8; (dose: 1.0 mg/kg/injection, schedule: Q08DX002 (ip), vehicle: saline) 8 of 8; (dose: 1.0 mg/kg/injection, schedule: Q11DX002 (ip), vehicle: saline) 8 of 8; (dose: 2.0 mg/kg/injection, schedule: Q01DX001 (ip), vehicle: saline) 8 of 8. The survivor count is given as 8 of 8 (dose: 2.0 mg/kg/injection, schedule: Q01DX005 (ip), vehicle: saline); 8 of 8 (dose: 2.0 mg/kg/injection, schedule: Q04DX003 (ip), vehicle: saline); 8 of 8 (dose: 2.0 mg/kg/injection, schedule: Q08DX002 (ip), vehicle: saline); 8 of 8 (dose: 2.0 mg/kg/injection, schedule: Q11DX002 (ip), vehicle: saline); 6 of 8 (dose: 4.0 mg/kg/injection, schedule: Q01DX001 (ip), vehicle: saline); 7 of 8 (dose: 4.0 mg/kg/injection, schedule: Q04DX003 (ip), vehicle: saline). Besides, the survivor count is reported as 7 of 8 (dose: 4.0 mg/kg/injection, schedule: Q08DX002 (ip), vehicle: saline) and 7 of 8 (dose: 4.0 mg/kg/injection, schedule: Q11DX002 (ip), vehicle: saline).

As to `CC(=O)Nc1ncc2ccccc2c1-c1ccc(N)cc1`, the survivor count reads like this: (dose: 1.0 mg/kg/injection, schedule: Q01DX001 (ip), vehicle: DMSO) 2 of 2; (dose: 10.0 mg/kg/injection, schedule: Q01DX001 (ip), vehicle: DMSO) 2 of 2; (dose: 100.0 mg/kg/injection, schedule: Q01DX001 (ip), vehicle: DMSO) 2 of 2.
